Experimental findings from US20070154905A1 are described below.

Chains of the proteins cited; added tags and fusions are not shown. Lines headed by an entry give the natural chain unless they say otherwise; changes in a name come on top.
UniProt Q14790: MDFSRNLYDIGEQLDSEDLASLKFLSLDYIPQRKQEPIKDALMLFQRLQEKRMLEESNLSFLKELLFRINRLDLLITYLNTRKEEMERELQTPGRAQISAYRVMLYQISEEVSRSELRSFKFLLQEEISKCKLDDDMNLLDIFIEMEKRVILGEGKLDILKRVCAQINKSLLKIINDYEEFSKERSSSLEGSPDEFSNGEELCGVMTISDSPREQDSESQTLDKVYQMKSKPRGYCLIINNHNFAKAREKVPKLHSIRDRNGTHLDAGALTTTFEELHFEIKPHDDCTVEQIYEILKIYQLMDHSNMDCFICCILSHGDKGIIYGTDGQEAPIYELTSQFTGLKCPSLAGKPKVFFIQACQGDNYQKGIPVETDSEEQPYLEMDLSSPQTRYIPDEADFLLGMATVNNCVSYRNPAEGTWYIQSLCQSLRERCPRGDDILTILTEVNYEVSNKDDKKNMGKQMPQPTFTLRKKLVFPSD

Experiment [1] concerns the target T1, MORT-1 protein (full-length) (human).
T1 sequence: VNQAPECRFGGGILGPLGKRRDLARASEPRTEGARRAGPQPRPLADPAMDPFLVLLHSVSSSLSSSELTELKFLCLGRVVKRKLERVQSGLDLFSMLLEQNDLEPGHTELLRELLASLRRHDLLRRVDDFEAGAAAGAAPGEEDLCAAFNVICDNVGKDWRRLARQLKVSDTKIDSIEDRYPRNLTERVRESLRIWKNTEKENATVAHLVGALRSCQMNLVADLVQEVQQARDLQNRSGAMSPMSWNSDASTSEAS
Nature of the experiment: yeast two-hybrid.

The target in experiment [2] is T2, MORT1 fused at its N terminus to the HA epitope (human).
T2 sequence: T1 sequence
The experiment in a line: co-immunoprecipitation of 35S-labelled FLAG- and HA-tagged proteins from HeLa cells, SDS-PAGE and autoradiography.

Experiment [3] concerns the target T1, MORT-1 protein (full-length) (human). The experiment in a line: co-immunoprecipitation from 293-EBNA cell lysates.

These are yes or no findings as the source states them, for the method shown. For some of these results: Binding seen in cells or lysates may run through a third protein. Some results given as binding are weak or reduced against the parent protein; the word gives no strength. For some of these results: Tags and fused reporters may be left off the sequences shown.

For the substance “MACHα1 (from UniProt Q14790 1-479) (enzyme)”, the binding result in experiment [1] was “binds”.
Consider “MACHα1 fused at its N-terminus to the FLAG octapeptide (from UniProt Q14790 1-479) (enzyme)”, for which the binding entry in experiment [2] was “binds”.
On to “MACHα1 mutant in which the catalytic cysteine Cys360 is replaced by Ser (from UniProt Q14790 1-479) (enzyme)”, for which the binding result in experiment [1] and in experiment [3] was “binds” throughout.
